Patent US7695933B2, “SM38 nucleic acid molecules” (priority 2000, dated 2010)
Some results were stated once for a whole list of compounds, not compound by compound. At least one structure is not confirmed: it was looked up by name or label, or the drawing left a doubt.

System: bone marrow neutrophils
Test: In vitro transwell chemotaxis assay
Type: cell-based, mouse
Conditions: WT neutrophils pre-incubated with agent; fMLP in bottom chamber
Description: Bone marrow neutrophils were purified (95% purity) by positive selection using biotinylated GR-1 (PharMingen) and MACS Streptavidin Microbeads (Miltenyi Biotec, Auburn Calif.). Chemotaxis assays (Falk et al., 1980 J. Immuno. Methods 33:239-247) were performed using 24-well transwell plates with a 3 μm pore size polycarbonate filter (Costar, Cambridge, Mass.). Medium (HBSS+Ca2^++Mg2^+), fMLP (1 μM, Sigma, St. Louis, Mo.), or IL-8 (100 nM, Sigma) was placed in the lower and/or upper chamber in a checkerboard format. 1×10^5 neutrophils were loaded in the upper chamber and the plates were incubated at 37° C. for 45 min. The transmigrated cells were collected from the lower chamber, fixed and counted on the flow cytometer (FACS Calibur, Becton Dickinson, San Jose Calif.). To determine the absolute number of cells in each sample, a standard number of […] size fluorescent microspheres (Polysciences, Inc. Warrington, Pa.) was added to each tube and counted along with the cells. The total number of transmigrated cells=the number of counted neutrophils×total number of beads/beads counted. […]

## O=C(O)CN(CCOCCOCCN(CC(=O)O)CC(=O)O)CC(=O)O [EGTA]
  chemotaxis of WT neutrophils to fMLP reduced by: more than 80%

## N=c1c2nc(Br)n3c2ncn1C1OC(COP(=O)(O)OP(=O)(O)OCC2OC3C(O)C2O)C(O)C1O (centres unmarked) [8-Br-cADPR]
  chemotaxis of WT neutrophils to fMLP reduced by: more than 80%
